Where two headings read alike, the source gives them in different places. No constants are given. Whether binding was seen depends on the method and setting. For some of these results: In cells and extracts the contact can be indirect. Some results given as binding are weak or reduced against the parent protein; the word gives no strength. For some of these results: Sequences can lack the tags named with a protein. One block for each binder: values may come before it.
Legend:
[1] = biological target: Mto2 Near-N-terminal Domain (NND; Mto2 residues 78-153) (S. pombe) (UniProt Q9USP7); experiment: SEC
[2] = biological target: T1, 6xHis-TEV-Mto1[bonsai] (Mto1 residues 131-549) (S. pombe) (UniProt O94488); experiment: cross-linking
T1 sequence: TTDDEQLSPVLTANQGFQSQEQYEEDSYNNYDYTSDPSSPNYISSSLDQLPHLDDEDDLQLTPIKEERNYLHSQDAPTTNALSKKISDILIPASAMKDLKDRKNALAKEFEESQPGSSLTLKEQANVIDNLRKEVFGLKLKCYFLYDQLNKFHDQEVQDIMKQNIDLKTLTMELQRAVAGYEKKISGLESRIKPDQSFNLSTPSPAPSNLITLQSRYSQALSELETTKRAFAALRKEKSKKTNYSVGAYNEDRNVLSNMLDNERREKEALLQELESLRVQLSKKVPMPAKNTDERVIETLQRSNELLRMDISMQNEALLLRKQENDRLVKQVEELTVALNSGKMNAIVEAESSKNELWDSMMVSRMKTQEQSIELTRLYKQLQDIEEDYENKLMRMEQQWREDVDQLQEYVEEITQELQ

[3] = biological target: T1, 6xHis-TEV-Mto1[bonsai] (Mto1 residues 131-549) (S. pombe); experiment: pull-down
[4] = biological target: T2, GST-6xHis-TEV-Mto1[bonsai] (S. pombe) (UniProt O94488); experiment: pull-down
T2 sequence: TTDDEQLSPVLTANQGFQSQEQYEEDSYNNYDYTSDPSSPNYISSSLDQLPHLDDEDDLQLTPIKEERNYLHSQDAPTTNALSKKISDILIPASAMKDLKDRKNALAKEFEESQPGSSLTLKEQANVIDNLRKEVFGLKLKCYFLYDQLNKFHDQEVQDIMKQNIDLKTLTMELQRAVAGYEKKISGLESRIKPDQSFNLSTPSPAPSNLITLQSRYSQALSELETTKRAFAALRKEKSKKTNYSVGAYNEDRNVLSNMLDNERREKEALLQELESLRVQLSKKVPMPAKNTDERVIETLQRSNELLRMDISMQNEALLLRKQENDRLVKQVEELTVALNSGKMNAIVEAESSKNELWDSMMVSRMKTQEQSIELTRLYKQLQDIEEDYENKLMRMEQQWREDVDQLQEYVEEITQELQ

[5] = biological target: T3, Mto1[bonsai]-GFP (S. pombe) (UniProt O94488); experiment: co-IP
T3 sequence: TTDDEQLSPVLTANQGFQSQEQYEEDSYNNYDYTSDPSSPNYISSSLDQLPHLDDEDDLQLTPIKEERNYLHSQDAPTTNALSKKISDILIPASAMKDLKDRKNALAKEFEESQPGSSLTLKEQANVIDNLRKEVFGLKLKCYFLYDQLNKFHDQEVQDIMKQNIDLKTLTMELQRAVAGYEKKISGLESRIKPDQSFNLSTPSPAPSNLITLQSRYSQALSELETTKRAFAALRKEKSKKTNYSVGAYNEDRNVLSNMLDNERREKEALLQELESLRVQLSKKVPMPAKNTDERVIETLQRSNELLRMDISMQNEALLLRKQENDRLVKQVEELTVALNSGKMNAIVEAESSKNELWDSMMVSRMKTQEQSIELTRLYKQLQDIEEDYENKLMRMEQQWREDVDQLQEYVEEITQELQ

[6] = biological target: T3, Mto1[bonsai]-GFP (S. pombe); experiment: co-IP; remark: listed apart in the source

binding [1]: binds weakly
B1: Mto2 Near-N-terminal Domain (NND; Mto2 residues 78-153) (domain or fragment, UniProt Q9USP7 78-153)
chain: PLYSPSWPSLADANVNSMKSNNAIQEHKAAKFVSEKSLEKVSTADNNLVLQELENLRERLNQVELQLSERPSSYLG

binding [2]: binds
binding [3]: binds
B2: Mto2, untagged, co-expressed with 6xHis-Mto1[bonsai] (protein, UniProt Q9USP7 1-397)
chain: MSEHNYQSDREVAEDPFLNYEASANQLSSNSRESTPRGSPWRAGMRSASLMTEPLEDSMYSDNNYLDNGVSFTKDENPLYSPSWPSLADANVNSMKSNNAIQEHKAAKFVSEKSLEKVSTADNNLVLQELENLRERLNQVELQLSERPSSYLGYHNNLSPYRSPNSYPSLLPSTHSPHSPAPLSTMQTALMRLRTYHPSPIILKPVEQAVNHAITLVNTSPSSVVDALCRSLAELCLGLVQEAIDASILSQQESSNSLDLVRHTPPLNYTSSVDSSPQRMASDSYGRPSLHLNDPFPSVDLQSNELSHHNVRTTLFSDDSRFHSKIHTHSTPPSQMYSAASHFRYRSDPSTRHVSNSTNKSSLHPSPTSLRVAHPIIPQRASPASQSFPSLQDTPSP

binding [5]: binds
B4: Mto2, wild type, in S. pombe (mto2+) (protein, UniProt Q9USP7 1-397)
chain: MSEHNYQSDREVAEDPFLNYEASANQLSSNSRESTPRGSPWRAGMRSASLMTEPLEDSMYSDNNYLDNGVSFTKDENPLYSPSWPSLADANVNSMKSNNAIQEHKAAKFVSEKSLEKVSTADNNLVLQELENLRERLNQVELQLSERPSSYLGYHNNLSPYRSPNSYPSLLPSTHSPHSPAPLSTMQTALMRLRTYHPSPIILKPVEQAVNHAITLVNTSPSSVVDALCRSLAELCLGLVQEAIDASILSQQESSNSLDLVRHTPPLNYTSSVDSSPQRMASDSYGRPSLHLNDPFPSVDLQSNELSHHNVRTTLFSDDSRFHSKIHTHSTPPSQMYSAASHFRYRSDPSTRHVSNSTNKSSLHPSPTSLRVAHPIIPQRASPASQSFPSLQDTPSP

binding [6]: binds weakly
binding [5]: binds
B7: γ-tubulin (Gtb1) (protein, UniProt P25295 1-446)
chain: MGREIITLQAGQCGNQIGSQFWQQLCLEHGIGPDGTLESFATEGVDRKDVFFYQSDDTRYIPRAILIDLEPRVVNNILSDTYGSLYNPENILITKNGGGAGNNWANGYSHAERIFEDIMDMIDREADGSDSLEGFSLLHSIAGGTGSGLGSFLLERLNDRYPKKIIQTYSVFPNSQSVSDVVVQPYNSLLALKRLTLNADSVVVLDNAALAHIAADRLHTQNPTFHQQNQLVSTVMSASTTTLRYPGYMNNDLVSIIASLIPSPRCHFLLTSYTPFTNQQVEEAKAIRKTTVLDVMRRLLLPKNQMVSVNPSKKSCFISILDIIQGEADPADVHKSLLRIRERRYASFIPWGPASIQVALSKKSPYIKTNHRVSGLMLANHTSIASLFKRTLDQYDRLRKRNAFLEQYKKEAIFEDDLNEFDSSRDVVADLINEYEACEDPNYLSL

Second part, the binder before the results:

B3: 6xHis-tagged Mto2 (protein, UniProt Q9USP7 1-397)
chain: MSEHNYQSDREVAEDPFLNYEASANQLSSNSRESTPRGSPWRAGMRSASLMTEPLEDSMYSDNNYLDNGVSFTKDENPLYSPSWPSLADANVNSMKSNNAIQEHKAAKFVSEKSLEKVSTADNNLVLQELENLRERLNQVELQLSERPSSYLGYHNNLSPYRSPNSYPSLLPSTHSPHSPAPLSTMQTALMRLRTYHPSPIILKPVEQAVNHAITLVNTSPSSVVDALCRSLAELCLGLVQEAIDASILSQQESSNSLDLVRHTPPLNYTSSVDSSPQRMASDSYGRPSLHLNDPFPSVDLQSNELSHHNVRTTLFSDDSRFHSKIHTHSTPPSQMYSAASHFRYRSDPSTRHVSNSTNKSSLHPSPTSLRVAHPIIPQRASPASQSFPSLQDTPSP
binding [4]: binds

B5: Mto2[1-319] (domain or fragment, UniProt Q9USP7 1-319)
chain: MSEHNYQSDREVAEDPFLNYEASANQLSSNSRESTPRGSPWRAGMRSASLMTEPLEDSMYSDNNYLDNGVSFTKDENPLYSPSWPSLADANVNSMKSNNAIQEHKAAKFVSEKSLEKVSTADNNLVLQELENLRERLNQVELQLSERPSSYLGYHNNLSPYRSPNSYPSLLPSTHSPHSPAPLSTMQTALMRLRTYHPSPIILKPVEQAVNHAITLVNTSPSSVVDALCRSLAELCLGLVQEAIDASILSQQESSNSLDLVRHTPPLNYTSSVDSSPQRMASDSYGRPSLHLNDPFPSVDLQSNELSHHNVRTTLFSDD
binding [4]: binds weakly

B6: Mto2[44-397] (domain or fragment, UniProt Q9USP7 44-397)
chain: GMRSASLMTEPLEDSMYSDNNYLDNGVSFTKDENPLYSPSWPSLADANVNSMKSNNAIQEHKAAKFVSEKSLEKVSTADNNLVLQELENLRERLNQVELQLSERPSSYLGYHNNLSPYRSPNSYPSLLPSTHSPHSPAPLSTMQTALMRLRTYHPSPIILKPVEQAVNHAITLVNTSPSSVVDALCRSLAELCLGLVQEAIDASILSQQESSNSLDLVRHTPPLNYTSSVDSSPQRMASDSYGRPSLHLNDPFPSVDLQSNELSHHNVRTTLFSDDSRFHSKIHTHSTPPSQMYSAASHFRYRSDPSTRHVSNSTNKSSLHPSPTSLRVAHPIIPQRASPASQSFPSLQDTPSP
binding [4]: binds

B8: Mto2[1-350] (domain or fragment, UniProt Q9USP7 1-350)
chain: MSEHNYQSDREVAEDPFLNYEASANQLSSNSRESTPRGSPWRAGMRSASLMTEPLEDSMYSDNNYLDNGVSFTKDENPLYSPSWPSLADANVNSMKSNNAIQEHKAAKFVSEKSLEKVSTADNNLVLQELENLRERLNQVELQLSERPSSYLGYHNNLSPYRSPNSYPSLLPSTHSPHSPAPLSTMQTALMRLRTYHPSPIILKPVEQAVNHAITLVNTSPSSVVDALCRSLAELCLGLVQEAIDASILSQQESSNSLDLVRHTPPLNYTSSVDSSPQRMASDSYGRPSLHLNDPFPSVDLQSNELSHHNVRTTLFSDDSRFHSKIHTHSTPPSQMYSAASHFRYRSDPS
binding [4]: binds
